Measurements reported in PubChem BioAssay AID743121 (NCATS, 2013)
In all, the deposit lists about 26,000 reagents; this is a part drawn at random. 167 of all reagents (0.63%) count as active. 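Calls are per gene from RSA p-values that are not deposited; an individual active-marked siRNA can sensitise only weakly.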 Reagents against one gene are numbered here. Not all columns of the deposit are shown.

Aim: 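Knock-downs that sensitise breast cancer cells to camptothecin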 (primary screen)
System: MDA-MB-231 cells, a human breast cancer line
Reagent: single siRNA against human genes, 20 nM siRNA (0.8 pmol per well)
Duration: 120 h (drug added 48 h after transfection, read 72 h later)
Challenge: camptothecin 20 nM (about EC30) for 72 h; vehicle 0.1% DMSO in parallel plates
Read-out: 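CellTiter-Glo ATP signal, scaled to control siRNA as percent viability; sensitisation given as log2 of untreated divided by camptothecin-treated viability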
Reading the numbers: log2 vehicle/camptothecin viability: higher = stronger sensitisation to camptothecin
Hit rule: 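Each gene scored by redundant siRNA activity (RSA) over its individual siRNA ratios; a gene is called active at p < 0.001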

no.	gene symbol	reagent no.	log2 vehicle/camptothecin viability	call
1	KAT2B (lysine acetyltransferase 2B)	1	-0.0957	inactive
2	KAT2B (lysine acetyltransferase 2B)	2	-0.131	inactive
3	KAT2B (lysine acetyltransferase 2B)	3	0.232	inactive
4	KAT2B (lysine acetyltransferase 2B)	4	-0.306	inactive
5	MEX3B (mex-3 RNA binding family member B)	1	0.446	inactive
6	MEX3B (mex-3 RNA binding family member B)	2	-0.186	inactive
7	MEX3B (mex-3 RNA binding family member B)	3	-0.0545	inactive
8	MEX3B (mex-3 RNA binding family member B)	4	0.00869	inactive
9	FBXO38 (F-box protein 38)	1	-0.143	inactive
10	FBXO38 (F-box protein 38)	2	-0.155	inactive
11	FBXO38 (F-box protein 38)	3	-0.069	inactive
12	FBXO38 (F-box protein 38)	4	-0.0869	inactive
13	NR2E1 (nuclear receptor subfamily 2 group E member 1)	1	0.124	inactive
14	NR2E1 (nuclear receptor subfamily 2 group E member 1)	2	-0.513	inactive
15	NR2E1 (nuclear receptor subfamily 2 group E member 1)	3	-0.106	inactive
16	NR2E1 (nuclear receptor subfamily 2 group E member 1)	4	-0.259	inactive
17	PALS2 (protein associated with LIN7 2, MAGUK p55 family member)	1	-0.354	inactive
18	PALS2 (protein associated with LIN7 2, MAGUK p55 family member)	2	-0.38	inactive
19	PALS2 (protein associated with LIN7 2, MAGUK p55 family member)	3	-0.09	inactive
20	PALS2 (protein associated with LIN7 2, MAGUK p55 family member)	4	-0.338	inactive
21	GABRA1 (gamma-aminobutyric acid type A receptor subunit alpha1)	1	-0.727	inactive
22	GABRA1 (gamma-aminobutyric acid type A receptor subunit alpha1)	2	0.103	inactive
23	GABRA1 (gamma-aminobutyric acid type A receptor subunit alpha1)	3	0.244	inactive
24	GABRA1 (gamma-aminobutyric acid type A receptor subunit alpha1)	4	0.222	inactive
25	RBKS (ribokinase)	1	-0.0817	inactive
26	RBKS (ribokinase)	2	0.0447	inactive
27	RBKS (ribokinase)	3	-0.00141	inactive
28	RBKS (ribokinase)	4	-0.322	inactive
29	RNF125 (ring finger protein 125)	1	0.226	inactive
30	RNF125 (ring finger protein 125)	2	-0.209	inactive
31	RNF125 (ring finger protein 125)	3	0.472	inactive
32	TRIO (trio Rho guanine nucleotide exchange factor)	1	0.0678	inactive
33	TRIO (trio Rho guanine nucleotide exchange factor)	2	-0.351	inactive
34	TRIO (trio Rho guanine nucleotide exchange factor)	3	-0.0491	inactive
35	TRIO (trio Rho guanine nucleotide exchange factor)	4	-0.39	inactive
36	DNASE1L3 (deoxyribonuclease 1L3)	1	0.078	inactive
37	DNASE1L3 (deoxyribonuclease 1L3)	2	0.152	inactive
38	DNASE1L3 (deoxyribonuclease 1L3)	3	-0.279	inactive
39	DNASE1L3 (deoxyribonuclease 1L3)	4	-0.0804	inactive
40	GPR17 (G protein-coupled receptor 17)	1	0.246	inactive
41	GPR17 (G protein-coupled receptor 17)	2	-0.0183	inactive
42	GPR17 (G protein-coupled receptor 17)	3	-0.0958	inactive
43	GPR17 (G protein-coupled receptor 17)	4	-0.704	inactive
44	THOP1 (thimet oligopeptidase 1)	1	-0.34	inactive
45	THOP1 (thimet oligopeptidase 1)	2	-0.0968	inactive
46	THOP1 (thimet oligopeptidase 1)	3	-0.24	inactive
47	THOP1 (thimet oligopeptidase 1)	4	0.808	inactive
48	DGCR6 (DiGeorge syndrome critical region gene 6)	1	0	inactive
49	DGCR6 (DiGeorge syndrome critical region gene 6)	2	-0.176	inactive
50	DGCR6 (DiGeorge syndrome critical region gene 6)	3	0.0937	inactive
51	DGCR6 (DiGeorge syndrome critical region gene 6)	4	-0.496	inactive
52	SLC1A4	1	0.0445	inactive
53	SLC1A4	2	-0.281	inactive
54	SLC1A4	3	-0.191	inactive
55	SLC1A4	4	0.00847	inactive
56	BRD8 (bromodomain containing 8)	1	-0.377	inactive
57	BRD8 (bromodomain containing 8)	2	-0.101	inactive
58	BRD8 (bromodomain containing 8)	3	0.271	inactive

10 neighbouring reagents from above, for reference:
no.	gene symbol	reagent no.	log2 vehicle/camptothecin viability	call
26	RBKS (ribokinase)	2	0.0447	inactive
27	RBKS (ribokinase)	3	-0.00141	inactive
28	RBKS (ribokinase)	4	-0.322	inactive
29	RNF125 (ring finger protein 125)	1	0.226	inactive
30	RNF125 (ring finger protein 125)	2	-0.209	inactive
31	RNF125 (ring finger protein 125)	3	0.472	inactive
32	TRIO (trio Rho guanine nucleotide exchange factor)	1	0.0678	inactive
33	TRIO (trio Rho guanine nucleotide exchange factor)	2	-0.351	inactive
34	TRIO (trio Rho guanine nucleotide exchange factor)	3	-0.0491	inactive
35	TRIO (trio Rho guanine nucleotide exchange factor)	4	-0.39	inactive

The results go on.
no.	gene symbol	reagent no.	log2 vehicle/camptothecin viability	call
59	PTPRJ (protein tyrosine phosphatase receptor type J)	1	-0.112	inactive
60	PTPRJ (protein tyrosine phosphatase receptor type J)	2	-0.0273	inactive
61	PTPRJ (protein tyrosine phosphatase receptor type J)	3	-0.437	inactive
62	PTPRJ (protein tyrosine phosphatase receptor type J)	4	-0.415	inactive
63	MTA1 (metastasis associated 1)	1	-0.571	inactive
64	MTA1 (metastasis associated 1)	2	0.135	inactive
65	MTA1 (metastasis associated 1)	3	-0.492	inactive
66	MRPL23 (mitochondrial ribosomal protein L23)	1	-0.453	inactive
67	MRPL23 (mitochondrial ribosomal protein L23)	2	0.0649	inactive
68	MRPL23 (mitochondrial ribosomal protein L23)	3	-0.443	inactive
69	MRPL23 (mitochondrial ribosomal protein L23)	4	-0.283	inactive
70	UBXN1 (UBX domain protein 1)	1	-0.108	inactive
71	UBXN1 (UBX domain protein 1)	2	-0.175	inactive
72	UBXN1 (UBX domain protein 1)	3	0.438	inactive
73	UBXN1 (UBX domain protein 1)	4	0.569	inactive
74	CACNA1I (calcium voltage-gated channel subunit alpha1 I)	1	0.284	inactive
75	CACNA1I (calcium voltage-gated channel subunit alpha1 I)	2	-0.51	inactive
76	CACNA1I (calcium voltage-gated channel subunit alpha1 I)	3	0.114	inactive
77	CACNA1I (calcium voltage-gated channel subunit alpha1 I)	4	0.379	inactive
78	PKD1L2 (polycystin 1 like 2 (gene/pseudogene))	1	-0.421	inactive
79	PKD1L2 (polycystin 1 like 2 (gene/pseudogene))	2	-0.24	inactive
80	PKD1L2 (polycystin 1 like 2 (gene/pseudogene))	3	-0.134	inactive
81	PKD1L2 (polycystin 1 like 2 (gene/pseudogene))	4	-0.212	inactive
82	MLNR (motilin receptor)	1	0.106	inactive
83	MLNR (motilin receptor)	2	-0.183	inactive
84	MLNR (motilin receptor)	3	-0.344	inactive
85	MLNR (motilin receptor)	4	-0.136	inactive
86	ALDH4A1 (aldehyde dehydrogenase 4 family member A1)	1	-0.0205	inactive
87	ALDH4A1 (aldehyde dehydrogenase 4 family member A1)	2	-0.351	inactive
88	ALDH4A1 (aldehyde dehydrogenase 4 family member A1)	3	0.93	inactive
89	ALDH4A1 (aldehyde dehydrogenase 4 family member A1)	4	-0.345	inactive
